Results deposited as PubChem BioAssay AID493246 (Drosophila RNAi Screening Center, 2011)
The screen tested about 21,000 reagents; below is a random part of those that have a named target and a result. Over the whole deposit, 429 (2%) were called active. 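Values are raw and not normalised between plates; calls rest on per-plate z-scores that were not deposited.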 Unmarked entries are inactive. Reagent sequences are not shown. Not given: the amount of reagent, the time to read-out.

Assay: 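Genome-wide search for dsRNAs that reduce cell number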 (primary screen)
Cell system: Drosophila Kc and S2R+ cells
Knock-down reagent: long dsRNA against Drosophila genes
Read-out: 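Cell number per well after knock-down, printed as raw plate values; calls were based on per-plate z-scores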
Direction: Kc cell number and S2R+ cell number: higher = more cells remaining
Hit rule: 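Counted as a hit if cell number falls by a z-score of at least 3 within its plate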

target | DRSC id | Kc cell number, rep 1 | Kc cell number, rep 2 | S2R+ cell number, rep 1 | S2R+ cell number, rep 2
CCT8 | DRSC07130 | 1.39e6 | 1.44e6 | 1.17e6 | 1.32e6
unk | DRSC17093 | 1.59e6 | 1.62e6 | 1.24e6 | 1.27e6
CG17378 | DRSC02616 | 1.55e6 | 1.35e6 | 1.13e6 | 1.25e6
CG15125 | DRSC06547 | 1.73e6 | 1.72e6 | 1.19e6 | 1.30e6
CG14153 | DRSC10155 | 1.41e6 | 1.55e6 | 1.25e6 | 1.36e6
ninaG | DRSC16102 | 1.58e6 | 1.65e6 | 1.36e6 | 1.42e6
CG33630 | DRSC14546 | 1.53e6 | 1.47e6 | 1.20e6 | 1.30e6
Lcp2 | DRSC07456 | 1.62e6 | 1.72e6 | 1.27e6 | 1.41e6
CG6126 | DRSC15971 | 1.70e6 | 1.90e6 | 1.09e6 | 1.22e6
nsr | DRSC04427 | 1.53e6 | 1.59e6 | 1.14e6 | 1.18e6

Look-ups from the entries so far:
Under “Kc cell number, rep 2”, unk [DRSC17093] shows 1.62e6
Entry of CG14153 [DRSC10155] in “Kc cell number, rep 1”: 1.41e6
Under “Kc cell number, rep 2”, CG17378 [DRSC02616] has 1.35e6

Next reagents follow.
target | DRSC id | Kc cell number, rep 1 | Kc cell number, rep 2 | S2R+ cell number, rep 1 | S2R+ cell number, rep 2
CG2616 | DRSC15440 | 1.24e6 | 1.44e6 | 1.15e6 | 1.24e6
CG10182 | DRSC14202 | 1.70e6 | 1.68e6 | 9.32e5 | 1.09e6
CG1309 | DRSC08302 | 1.36e6 | 1.45e6 | 1.23e6 | 1.24e6
LeuRS-m | DRSC08595 | 1.40e6 | 1.48e6 | 1.35e6 | 1.30e6
Spn28Dc | DRSC03029 | 1.39e6 | 1.55e6 | 1.00e6 | 1.11e6
CG5376 | DRSC15782 | 1.30e6 | 1.51e6 | 8.89e5 | 1.06e6
Ggamma1 | DRSC07435 | 1.60e6 | 1.60e6 | 1.18e6 | 1.28e6
ATP6 (retired record) | DRSC21278 | 1.55e6 | 1.56e6 | 1.11e6 | 1.31e6
CG4218 | DRSC01939 | 1.69e6 | 1.69e6 | 1.32e6 | 1.57e6
CG7222 | DRSC07019 | 1.46e6 | 1.44e6 | 1.20e6 | 1.28e6
COX7A | DRSC16514 | 1.50e6 | 1.60e6 | 1.12e6 | 1.21e6
l(2)34Fc | DRSC01910 | 1.63e6 | 1.67e6 | 1.38e6 | 1.57e6
CG34176 | DRSC00435 | 1.67e6 | 1.57e6 | 1.22e6 | 1.41e6
Marf | DRSC18329 | 4.71e5 | – | 6.65e5 | –
